# Values joined by “and” are separate entries in the source; they are usually repeats but may differ in a detail not shown here. Identical values can stand only once. Among all 580,000 compounds or so, about 6,100 (1.1%) were called active. This list was built around the results that the source calls inconclusive (neither active nor inactive); the mix of calls is not that of the screen. The call rests on the fitted dose curve; in most records, active means well fitted inhibition curve with a large enough effect; inconclusive means small, poorly fitted or top-dose-only effect, or another doubt; inactive means no such curve, though single readings can be large or run the other way. Where the call is inconclusive, the potency comes from a doubtful curve fit.
# Protein sequences, listed by entry. Tags and fused reporters are not part of them.
# UniProt P18054, whole entry, looked up: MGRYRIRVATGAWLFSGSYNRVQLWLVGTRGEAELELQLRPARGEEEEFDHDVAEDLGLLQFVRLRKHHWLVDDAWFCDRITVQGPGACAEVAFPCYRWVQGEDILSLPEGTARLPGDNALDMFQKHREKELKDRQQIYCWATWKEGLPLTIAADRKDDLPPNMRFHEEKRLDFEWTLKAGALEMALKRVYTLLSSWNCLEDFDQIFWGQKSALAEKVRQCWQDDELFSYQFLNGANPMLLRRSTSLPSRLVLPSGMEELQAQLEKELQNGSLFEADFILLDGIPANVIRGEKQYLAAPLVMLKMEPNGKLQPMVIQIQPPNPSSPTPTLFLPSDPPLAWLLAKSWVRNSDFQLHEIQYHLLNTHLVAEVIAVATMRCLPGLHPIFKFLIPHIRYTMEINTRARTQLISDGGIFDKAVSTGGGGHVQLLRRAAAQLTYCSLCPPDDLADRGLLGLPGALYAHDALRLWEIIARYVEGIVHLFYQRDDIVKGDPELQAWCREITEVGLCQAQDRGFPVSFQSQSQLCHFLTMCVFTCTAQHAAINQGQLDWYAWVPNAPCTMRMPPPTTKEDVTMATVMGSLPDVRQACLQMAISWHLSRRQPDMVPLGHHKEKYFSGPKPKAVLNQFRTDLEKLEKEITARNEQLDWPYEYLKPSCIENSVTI
# Target: Polyunsaturated fatty acid lipoxygenase ALOX12 (Homo sapiens) (UniProt P18054)
# Test: Primary qHTS assay for inhibitors of human arachidonate 12S-lipoxygenase (ALOX12): Round 2
# Settings: purified 12hLO, xylenol orange hydroperoxide absorbance; activity change, negative = inhibition: at 108 µM (top of the series) unless noted
# Method in brief: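 Purified human 12hLO (150 nM final) in 25 mM Hepes, 0.01% Triton X-100, pH 7.0 was preincubated 15 min at room temperature with compound. Then 40 uM arachidonic acid was added, 30 min. Hydroperoxide was read by Fe-XO absorbance ratio 573/405 nm.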
# On the % scale 0 is the no-effect control and ±100 the full control effect; potency means the concentration at half of the fitted maximal effect.
SMILES,Potency,"activity change, negative = inhibition"
CC(C)Oc1ccc2ccccc2c1CN1C[C@H](O)C[C@H]1C(=O)O,inactive,
Cc1cnc(=O)[nH]c1SCC(=O)c1ccc(F)cc1,"inconclusive: 50.1 µM [inhibitor, partial curve, poor fit]",
COc1ccc(N=Nc2cc(OC)c(N)cc2OC)cc1,inactive,
N#Cc1ccccc1NC(=O)CSc1nnc(-c2ccncc2)o1,"inconclusive: 50.1 µM [inhibitor, partial curve, poor fit]",
COc1ccc(NC(=O)CCS(=O)(=O)c2ccc3c(c2)OCCO3)cc1Cl,"inconclusive: 141 µM [inhibitor, single point]",
C=CCC(Nc1ccco1)c1ccccc1 (configuration not stated),"inconclusive: 25.1 µM [inhibitor, partial curve, poor fit]",
FC(F)Sc1ccc(NC(=S)NCc2ccccc2)cc1,"inconclusive: 50.1 µM [inhibitor, partial curve, poor fit]",
COc1ccc(-c2oc3c(c2C#CC2(O)CCCCC2)C(OC)CCC3)cc1 (configuration not stated),"inconclusive: 89.1 µM [inhibitor, partial curve, poor fit]",
COc1ccc(-c2nnc3sc(CN4C(=O)c5ccccc5C4=O)nn23)cc1,"inconclusive: 44.7 µM [inhibitor, single point]",
COc1ccc(CNC(=S)NC(C)CCc2ccccc2)cc1 (configuration not stated),active: 39.8 µM,
Nc1nc(SCC(=O)N2CCCC2)[nH]c(=O)c1-c1ccccc1,inactive,
CCCCOc1cccc(C(=O)Nc2ccc3oc(-c4cccnc4)nc3c2)c1,"inconclusive: 89.1 µM [inhibitor, partial curve, poor fit] and inconclusive: 112 µM [inhibitor, partial curve, poor fit]",
Cc1cc(C)cc(-n2c(SCC(N)=O)nc3c(oc4ccccc43)c2=O)c1,"inconclusive: 0.355 µM [inhibitor, full curve, poor fit]",
COC(C(=O)Nc1ccnn1C1CCN(Cc2ccc(CO)o2)CC1)c1ccccc1 (configuration not stated),inactive,
CCOC(=O)C1CCCN(C(=O)C2CCN(S(=O)(=O)c3ccc4c(ccn4CC)c3)CC2)C1 (configuration not stated),,inconclusive: -32% [inhibitor]
O=C1Nc2ccc(-c3ccccc3)cc2C(=O)N2CCN(C(=O)c3cccc(F)c3)C[C@H]12,"inconclusive: 25.1 µM [inhibitor, full curve, poor fit]",
S=C(Nc1cccc2ccccc12)N[C@H]1CO[C@H]2[C@@H]1OC[C@H]2OCc1ccccc1,active: 63.1 µM,
Cc1ccc(OCC(=O)N(C)CCc2ccccn2)cc1,"inconclusive: 1.26 µM [inhibitor, full curve]",
Cc1ccc(CNC(=O)c2ccccc2NC(=O)CSc2nc(C)cs2)cc1,"inconclusive: 7.94 µM [inhibitor, partial curve, poor fit]",
Nc1cc(=O)[nH]c(SCc2c(F)cccc2Cl)n1,inactive,
CCSc1ccccc1C(=O)NCc1ccc(S(N)(=O)=O)cc1,inactive,
COC(=O)c1ccc(C(=O)N2CCCC(Nc3ccc(C(C)C)cc3)C2)nc1 (configuration not stated),"inconclusive: 79.4 µM [inhibitor, single point]",
O=c1cc(S(=O)(=O)Cc2ccccc2)[nH]c(=O)[nH]1,"inconclusive: 44.7 µM [inhibitor, partial curve, poor fit]",

SMILES,Potency,"activity change, negative = inhibition"
Cc1ccc(-c2noc(CCC(=O)N3CCc4sccc4C3c3cccs3)n2)cc1 (configuration not stated),"inconclusive: 112 µM [inhibitor, single point]",
COc1ccc(-c2cc(C)no2)cc1S(=O)(=O)N1CCCCC1,inactive,
CC(C)NC(=O)/C(C#N)=C\c1ccc(N(C)C)c(Br)c1,"inconclusive: 79.4 µM [inhibitor, partial curve, poor fit]",
O=S(=O)(c1ccccc1)c1nnn2c1nc(NCc1ccncc1)c1ccccc12,,inactive: -1.77% [at 6.33 µM]
O=C(NCC1(c2ccccc2)CCC1)c1n[nH]c(=O)c2ccccc12,inactive,
Cc1ccc2c(c1)[nH]c1c(=O)n(Cc3ccccn3)cnc12,inactive,
CC(C)Cc1ccc(-c2cnc(CCC(=O)NC3=NCCS3)o2)cc1,inactive,
Cc1ccc(Cn2c(N3CCN(C/C=C/c4ccccc4)CC3)nc3c2c(=O)[nH]c(=O)n3C)cc1,"inconclusive: 56.2 µM [inhibitor, partial curve, poor fit]",
Cc1cc(C)c2c(CN3CCCCC3C)cc(=O)oc2c1 (configuration not stated),"inconclusive: 50.1 µM [inhibitor, partial curve, poor fit]",
CCc1nc2c(OCc3ccc(C(F)(F)F)cc3)cccn2c1N(C)C(=O)C1CC1,"inconclusive: 14.1 µM [inhibitor, full curve, poor fit]",
C#CCN1C(=O)C(O)(CC(=O)/C=C/C=C/c2ccccc2)c2ccccc21 (configuration not stated),inactive,
c1ccc(CNc2ncncc2-c2ccoc2)cc1,"inconclusive: 3.55 µM [inhibitor, full curve, poor fit]",
O=C(NCc1ccco1)C(Cc1ccccc1)N1C(=O)c2ccccc2C1=O (configuration not stated),inactive,
Cc1ccc2[nH]c(CSc3nnc(NC(=O)c4ccccc4C)s3)cc(=O)c2c1,"inconclusive: 56.2 µM [inhibitor, partial curve, poor fit]",
COc1ccc(NC(=O)c2cc(-c3ccco3)nc3ccccc23)cn1,"inconclusive: 79.4 µM [inhibitor, partial curve, poor fit]",
CCCCNCc1ccc(C)s1,"inconclusive: 2.24 µM [inhibitor, full curve, poor fit]",
CC1(C)Cc2c(sc(NC(=S)NC(=O)c3ccccc3)c2C(=O)O)CO1,active: 24.3 µM and active: 28.2 µM,
CS(=O)(=O)c1ccccc1-c1nnc(NC(=O)c2cccc(N3C(=O)CCC3=O)c2)o1,"inconclusive: 0.0794 µM [inhibitor, full curve, poor fit]",
O=C(c1ccc(=O)oc1)N1CCN(C(c2ccccc2)c2ccccc2)CC1,"inconclusive: 44.7 µM [inhibitor, partial curve]",
Cc1cc(C)cc(C(=O)N2CCC(n3cnnc3-c3ccccc3)CC2)c1,inactive,
COC(=O)c1cccc(C(=O)NCC2CCCCC2)c1,"inconclusive: 100 µM [inhibitor, single point]",
COc1ccc(-c2cc(-c3ccccc3)c(-c3ccccc3)nn2)cc1,inactive,
CS(=O)(=O)c1ccc(C(=O)N(CCc2ccccc2)Cc2ccccc2)cc1,,inconclusive: -33.2% [inhibitor]

SMILES,Potency,"activity change, negative = inhibition"
CC(C)C(=O)/C(C#N)=C\c1ccc(OCc2cccc(F)c2)cc1,inactive,
Cc1nc(-c2c3n(c(=O)n(Cc4ccc(Cl)cc4)c2=O)CCCC3)no1,"inconclusive: 35.5 µM [inhibitor, partial curve]",
c1ccc2c(Nc3nc(-c4ccncc4)nc4ccccc34)cccc2c1,inactive,
CNC(=S)/N=C/NOCc1ccc(Cl)cc1Cl,"inconclusive: 50.1 µM [inhibitor, partial curve, poor fit]",
C/C(=N\NC(=S)NCc1ccccc1)c1ccc(C)o1,active: 15.8 µM,
COc1ccc(CNc2ncnc3c2CN(C2CCCNCC2)C(=O)CN3C)cc1OC (configuration not stated),"inconclusive: 1.41 µM [inhibitor, full curve, poor fit]",
COc1cccc(NC(=O)Cn2c(C)cc(=O)n3nc(-c4cccs4)nc23)c1,inactive,
Cn1cc(-c2cc3n(n2)CCC(=O)N3CC(=O)O)c2ccccc21,"inconclusive: 50.1 µM [inhibitor, partial curve, poor fit]",
O=C(c1cc([N+](=O)[O-])ccc1N1CCCC1)N1CCCCC1,"inconclusive: 39.8 µM [inhibitor, partial curve, poor fit]",
O=C1c2ccc([N+](=O)[O-])cc2C(=O)N1c1ccc([N+](=O)[O-])cn1,"inconclusive: 44.7 µM [inhibitor, partial curve, poor fit]",
COc1ccccc1CNC(=O)CN1CCC(c2nc3cc(Cl)ccc3s2)CC1,"inconclusive: 39.8 µM [inhibitor, partial curve, poor fit]",
CCC(C)C(=O)Nc1ccc(OC)cc1[N+](=O)[O-] (configuration not stated),"inconclusive: 56.2 µM [inhibitor, full curve, poor fit]",
COc1cc(OC)c(C2C(C#N)=C(N)OC3=C2C(=O)CC(C)C3)cc1OC (configuration not stated),inactive,
CC/C=C(/C)C(=O)N1CCN(C(=O)c2cccs2)CC1,"inconclusive: 14.1 µM [inhibitor, single point]",
CCN(CC)c1ccc(NC(=O)c2cc(S(=O)(=O)N3CCc4ccccc43)cn2C)c(C)c1,"inconclusive: 141 µM [inhibitor, partial curve, poor fit]",
O=C(COc1cccc(Cl)c1Cl)c1ccc2ccccc2c1,"inconclusive: 112 µM [inhibitor, single point]",
COc1ccc(C(OCC(O)CNCCc2ccccc2)c2ccc(OC)cc2)cc1 (configuration not stated),"inconclusive: 39.8 µM [inhibitor, partial curve]",
FC(F)(F)c1cnc(NNC(=S)Nc2ccc(Cl)cc2)c(Cl)c1,active: 44.7 µM,
CCOc1cc(/C=C2/NC(=O)NC2=O)cc(I)c1OCC,"inconclusive: 56.2 µM [inhibitor, partial curve, poor fit]",
O=C(CSc1nnc(SCc2cccc3ccccc23)s1)N/N=C/c1c[nH]c2ccccc12,inactive,
COc1ccc(C[C@H]2CN3C(=NC[C@H]3Cc3ccccc3)N2CCNC(=O)CCC2CCCCC2)cc1,"inconclusive: 70.8 µM [inhibitor, partial curve, poor fit]",

# From PubChem BioAssay AID1671190 (National Center for Advancing Translational Sciences (NCATS), 2021)
